Data from US12091402B2 (Avilar Therapeutics, Inc., priority 2021, dated 2024).
At least one structure is not confirmed: it was looked up by name or label, or the drawing left a doubt.

Legend:
[1] = system: HepG2 cells; test: Cellular uptake assay of AF488-labeled antibody (HepG2); type: cell-based
Experimental: The cellular uptake assay is designed to measure compound-mediated cellular uptake of fluorescently labeled antibody following ternary complex formation with the ASGPR receptor and endocytosis of the entire complex into cells.
Human IgG (Sigma-Aldrich, 14506) was covalently labeled with Alexa Fluor 488 using the Alexa Fluor™ 488 Protein Labeling Kit (Thermo Fisher, A10235) following the manufacturer's instructions. HepG2 cells were plated in DMEM supplemented with 10% FBS at 5,000 cells per well in a 96-well microtiter plate and incubated for approximately 18 hours at 37° C./5% CO2. For studies using human IgG, 100 nM AF488-labeled human IgG antibodies and serial dilutions of IgG-based degrader (0.1% DMSO final concentration) were added to the cells and the mixture was incubated at 37° C. for 6 hours. For studies using DNP, 100 nM AF488-labeled DNP antibodies and serial dilutions of DNP-based degrader (0.1% DMSO final concentration) were added to the cells and the mixture was incubated at 37° C. for 6 hours. HepG2 cells were fixed in 100% methanol at −20° C. for 20 min, washed 3× with PBS, then stained with DAPI (Thermo, Cat #H3570). […] Data is presented as the ratio of the number of cells positive for hIgG or DNP (AF-488 fluorescence) over the total cell number (measured by DAPI).

[2] = target: IgG; test: Affinity to IgG by surface plasmon resonance (SPR); type: binding
Experimental: Immobilization levels ranging from 1000-1300 resonance units (RU) are obtained. The running buffer is 10 mM HEPES, pH 7.4, 400 mM NaCl, 0.005% P20, […].

SMILES: CC(C)C[C@@H]1NC(=O)[C@H](Cc2c[nH]cn2)NC(=O)[C@H](Cc2c[nH]c3ccccc23)NC(=O)[C@H](C)NC(=O)[C@@H]2CSSC[C@H](NC(=O)[C@H](Cc3c[nH]c4ccccc34)NC(=O)[C@H](C(C)C)NC(=O)[C@H](CC(C)C)NC(=O)[C@H](CCC(=O)O)NC(=O)CNC1=O)C(=O)N[C@@H]([C@@H](C)O)C(=O)N1CCC[C@@H]1C(=O)N1C[C@@H](NC(=O)CCOCCOCCOCCOCCNC(=O)CCCc3cn(CCCCCC(=O)NC(COCCC(=O)NCCOCCOCCOCCOC[C@H]4OC[C@H](Nc5nccc(C(F)(F)F)n5)[C@@H](O)[C@H]4O)(COCCC(=O)NCCOCCOCCOCCOC[C@H]4OC[C@H](Nc5nccc(C(F)(F)F)n5)[C@@H](O)[C@H]4O)COCCC(=O)NCCOCCOCCOCCOC[C@H]4OC[C@H](Nc5nccc(C(F)(F)F)n5)[C@@H](O)[C@H]4O)nn3)C[C@H]1C(=O)N[C@@H](CC(=O)O)C(=O)N2 [Compound 86]
- EC50 [1]: < 100 nM
- Kd [2]: < 100 nM
